Article PMC5682278
Results are given in words; binding and its absence hold for the method and conditions named. Some results given as binding are weak or reduced against the parent protein; the word gives no strength.

Molecular target: VACV D4 (uracil-DNA glycosylase), His-tagged (vaccinia virus (VACV)) (UniProt P20536)
Test: co-purification (nickel column, gel filtration)

With “VACV A20, full length, wild type (from UniProt P20995 1-426)” the binding was “binds”.
